The text below walks through data of article PMC1899183.

The chains behind the UniProt entries cited, without tags or fusion partners. Where a name states a change or a piece, a line headed by the entry shows the natural chain unless it says otherwise. Residues count along the entry.
UniProt P08631: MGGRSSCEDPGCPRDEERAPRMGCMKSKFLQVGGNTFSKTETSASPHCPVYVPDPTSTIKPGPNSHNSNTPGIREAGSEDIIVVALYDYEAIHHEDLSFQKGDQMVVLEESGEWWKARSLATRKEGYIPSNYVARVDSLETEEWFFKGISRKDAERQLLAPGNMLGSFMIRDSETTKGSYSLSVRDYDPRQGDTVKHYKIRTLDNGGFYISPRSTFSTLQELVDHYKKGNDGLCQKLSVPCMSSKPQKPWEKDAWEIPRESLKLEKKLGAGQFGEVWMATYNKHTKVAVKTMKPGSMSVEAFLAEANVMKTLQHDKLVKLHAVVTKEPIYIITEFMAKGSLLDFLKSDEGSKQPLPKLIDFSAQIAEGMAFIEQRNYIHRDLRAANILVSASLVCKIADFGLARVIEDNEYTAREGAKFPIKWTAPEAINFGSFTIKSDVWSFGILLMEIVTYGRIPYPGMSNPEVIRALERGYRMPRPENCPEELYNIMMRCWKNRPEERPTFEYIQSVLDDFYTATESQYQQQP
Human p59 Hck: residues 22-526 of P08631

In test [1] the target is Human p59 Hck (human) (UniProt P08631). Description: co-IP; Cos1 cells transiently transfected; lysis in 50 mM Tris-Cl pH 7.5, 150 mM NaCl, 10% glycerol, 0.5% NP-40; Hck polyclonal antibody or control rabbit IgG overnight at 4°C; Protein A/G Plus beads; western blot. (Immunoblotting shows a protein as a band on a membrane.)
The target is the same in test [2]. Described as above. This is another data set of the same source.
The target in test [3] is endogenous Hck (human (endogenous in HL-60)) (UniProt P08631). In words: co-IP; endogenous proteins; lysates of differentiated HL-60 cells (DMSO 1.25%) immunoprecipitated with Hck antibody or control rabbit IgG; western blot for p73 and Hck.

Like-named read-outs stand apart in the source and are kept apart here. These are yes or no findings as the source states them, for the method shown. Binding seen in cells or lysates may run through a third protein. Some results given as binding are weak or reduced against the parent protein; the word gives no strength. For part of these data: Where a sequence is shown, tags or fusion partners need not be part of it.

As for GFP-YAP (from UniProt P46937-5 1-450), in test [1], the binding result is “binds”.

B1: HA-p73α (protein, UniProt O15350-1 1-636)
chain: MAQSTATSPDGGTTFEHLWSSLEPDSTYFDLPQSSRGNNEVVGGTDSSMDVFHLEGMTTSVMAQFNLLSSTMDQMSSRAASASPYTPEHAASVPTHSPYAQPSSTFDTMSPAPVIPSNTDYPGPHHFEVTFQQSSTAKSATWTYSPLLKKLYCQIAKTCPIQIKVSTPPPPGTAIRAMPVYKKAEHVTDVVKRCPNHELGRDFNEGQSAPASHLIRVEGNNLSQYVDDPVTGRQSVVVPYEPPQVGTEFTTILYNFMCNSSCVGGMNRRPILIIITLEMRDGQVLGRRSFEGRICACPGRDRKADEDHYREQQALNESSAKNGAASKRAFKQSPPAVPALGAGVKKRRHGDEDTYYLQVRGRENFEILMKLKESLELMELVPQPLVDSYRQQQQLLQRPSHLQPPSYGPVLSPMNKVHGGMNKLPSVNQLVGQPPPHSSAATPNLGPVGPGMLNNHGHAVPANGEMSSSHSAQSMVSGSHCTPPPPYHADPSLVSFLTGLGCPNCIEYFTSQGLQSIYHLQNLTIEDLGALKIPEQYRMTIWRGLQDLKQGHDYSTAQQLLRSSNAATISIGGSGELQRQRVMEAVHFRVRHTITIPNRGGPGGGPDEWADFGFDLPDCKARKQPIKEEFTEAEIH
On to B1, for which the binding entry in test [2] was “binds”.

B2: endogenous p73α (protein, UniProt O15350-1 1-636)
chain: MAQSTATSPDGGTTFEHLWSSLEPDSTYFDLPQSSRGNNEVVGGTDSSMDVFHLEGMTTSVMAQFNLLSSTMDQMSSRAASASPYTPEHAASVPTHSPYAQPSSTFDTMSPAPVIPSNTDYPGPHHFEVTFQQSSTAKSATWTYSPLLKKLYCQIAKTCPIQIKVSTPPPPGTAIRAMPVYKKAEHVTDVVKRCPNHELGRDFNEGQSAPASHLIRVEGNNLSQYVDDPVTGRQSVVVPYEPPQVGTEFTTILYNFMCNSSCVGGMNRRPILIIITLEMRDGQVLGRRSFEGRICACPGRDRKADEDHYREQQALNESSAKNGAASKRAFKQSPPAVPALGAGVKKRRHGDEDTYYLQVRGRENFEILMKLKESLELMELVPQPLVDSYRQQQQLLQRPSHLQPPSYGPVLSPMNKVHGGMNKLPSVNQLVGQPPPHSSAATPNLGPVGPGMLNNHGHAVPANGEMSSSHSAQSMVSGSHCTPPPPYHADPSLVSFLTGLGCPNCIEYFTSQGLQSIYHLQNLTIEDLGALKIPEQYRMTIWRGLQDLKQGHDYSTAQQLLRSSNAATISIGGSGELQRQRVMEAVHFRVRHTITIPNRGGPGGGPDEWADFGFDLPDCKARKQPIKEEFTEAEIH
As for B2, in test [3], the binding entry is listed as “binds”.
